Earlier results on 1 molecule are cited in patent US20040092428A1, “Oral pharmaceuticals formulation comprising paclitaxel, derivatives and methods of administration thereof” (priority 2001, published 2004).

SMILES strings stand for the structures.

The conditions of the data set: cited from earlier work.

On to `CC(=O)O[C@H]1C(=O)[C@@]2(C)[C@H]([C@H](OC(=O)c3ccccc3)[C@]3(O)C[C@H](OC(=O)[C@H](O)[C@@H](NC(=O)c4ccccc4)c4ccccc4)C(C)=C1C3(C)C)[C@]1(OC(C)=O)CO[C@@H]1C[C@@H]2O` [Paclitaxel], for which the Solubility in water entry is on record as “practically insoluble”.
